No constants are given. Whether binding was seen depends on the method and setting.
Assays:
G5-HP60 (A. thaliana) [1] = target: G5-HP60 (A. thaliana) (UniProt O65570); assay: AUC; sedimentation velocity, 42,000 rpm, absorbance at 280 nm, 20°C, 20 mM PIPES, 50 mM NaCl pH 6.8; SEDFIT; both purified
G5-HP60 (A. thaliana) [2] = target: G5-HP60 (A. thaliana) (UniProt O65570); assay: AUC; sedimentation equilibrium, 28,000, 36,000 and 42,000 rpm, absorbance at 284 nm, 20°C, 20 mM PIPES, 50 mM NaCl pH 6.8; Heteroanalysis, non-ideal model with the molecular weight fixed to the monomer; both purified

B1: G5-HP60 (domain or fragment, UniProt O65570 915-974)
chain: GGGGGHPYDRLKTTSTDPVSDIDVTRREAYLSSEEFKEKFGMTKEAFYKLPKWKQNKFKMAVQLF
binding (G5-HP60 (A. thaliana) [1]): no binding
binding (G5-HP60 (A. thaliana) [2]): no binding
